The target of assay [1] is wt-Nef-EGFP (full-length wild-type HIV-1 Lai Nef, C-terminal EGFP) (HIV-1 (Lai)) (UniProt P03406). Nature of the assay: co-IP; HEK-293T cells co-transfected; cleared lysates incubated with anti-EGFP antibody on protein G magnetic beads and 1 mg/mL RNAse A overnight at 4°C; blots with anti-HDAC6, anti-HA, anti-Nef and anti-EGFP.
In assay [2] the target is Nef-G2A-EGFP (non-myristoylated HIV-1 Lai Nef mutant, C-terminal EGFP) (HIV-1 (Lai)) (UniProt P03406). The description is as above.
Assay [3] addresses HA-wt-HDAC6 (histone deacetylase 6, N-terminal HA epitope) (UniProt Q9UBN7). Nature of the assay: co-IP; HEK-293T cells co-transfected; cleared lysates incubated with anti-HA antibody on protein G magnetic beads and 1 mg/mL RNAse A overnight at 4°C; blots with anti-HDAC6, anti-Nef and anti-HA.

Amino acid sequences for entries named in this document (tags omitted).
UniProt Q9UBN7: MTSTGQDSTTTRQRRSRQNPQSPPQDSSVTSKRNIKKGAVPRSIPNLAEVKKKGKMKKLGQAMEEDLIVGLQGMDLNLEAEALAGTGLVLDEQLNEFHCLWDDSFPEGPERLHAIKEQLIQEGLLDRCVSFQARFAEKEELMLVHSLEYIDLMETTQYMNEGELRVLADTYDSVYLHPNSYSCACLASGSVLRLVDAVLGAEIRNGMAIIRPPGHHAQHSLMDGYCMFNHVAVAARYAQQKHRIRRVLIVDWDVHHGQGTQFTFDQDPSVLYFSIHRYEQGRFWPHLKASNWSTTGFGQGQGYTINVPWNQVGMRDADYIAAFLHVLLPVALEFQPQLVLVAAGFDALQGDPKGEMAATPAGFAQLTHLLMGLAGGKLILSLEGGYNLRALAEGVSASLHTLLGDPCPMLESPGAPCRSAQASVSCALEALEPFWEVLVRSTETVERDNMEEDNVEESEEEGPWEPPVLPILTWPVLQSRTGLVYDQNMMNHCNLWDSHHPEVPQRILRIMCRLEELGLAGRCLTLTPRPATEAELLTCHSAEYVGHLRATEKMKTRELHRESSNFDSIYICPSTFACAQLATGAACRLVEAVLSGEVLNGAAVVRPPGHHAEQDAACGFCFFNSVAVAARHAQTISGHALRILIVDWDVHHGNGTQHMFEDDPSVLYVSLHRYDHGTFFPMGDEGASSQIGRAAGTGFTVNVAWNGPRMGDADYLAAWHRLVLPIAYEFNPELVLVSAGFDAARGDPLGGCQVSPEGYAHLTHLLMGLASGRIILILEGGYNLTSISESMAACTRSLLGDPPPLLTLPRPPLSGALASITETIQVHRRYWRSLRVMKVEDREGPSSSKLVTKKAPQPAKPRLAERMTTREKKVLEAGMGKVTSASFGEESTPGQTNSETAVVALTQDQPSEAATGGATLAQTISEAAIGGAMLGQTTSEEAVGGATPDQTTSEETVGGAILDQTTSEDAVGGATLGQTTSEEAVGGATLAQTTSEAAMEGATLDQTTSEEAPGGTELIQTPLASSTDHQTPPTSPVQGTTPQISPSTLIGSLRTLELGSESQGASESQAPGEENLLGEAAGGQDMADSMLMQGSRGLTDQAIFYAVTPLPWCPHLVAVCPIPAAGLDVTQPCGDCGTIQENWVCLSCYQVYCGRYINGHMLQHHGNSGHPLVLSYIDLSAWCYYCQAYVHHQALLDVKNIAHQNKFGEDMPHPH

No constants are given. Whether binding was seen depends on the method and setting. Binding seen in cells or lysates may run through a third protein. Some entries that bind do so weakly or less than the wild type.

Our source for the binding values is PMC6831784.

Regarding “HA-wt-HDAC6 (histone deacetylase 6, N-terminal HA epitope) (from UniProt Q9UBN7 1-1215) (enzyme)”, the binding result in assay [1] and in assay [2] was “binds” throughout. Turning to “wt-Nef-EGFP (full-length wild-type HIV-1 Lai Nef, C-terminal EGFP) (from UniProt P03406 1-206)”, the binding result in assay [3] was “binds”.
